# PMC2935386
# The chains behind the UniProt entries cited, without tags or fusion partners. Where a name states a change or a piece, a line headed by the entry shows the natural chain unless it says otherwise. Residues count along the entry.
# UniProt P10828, residues 102-461: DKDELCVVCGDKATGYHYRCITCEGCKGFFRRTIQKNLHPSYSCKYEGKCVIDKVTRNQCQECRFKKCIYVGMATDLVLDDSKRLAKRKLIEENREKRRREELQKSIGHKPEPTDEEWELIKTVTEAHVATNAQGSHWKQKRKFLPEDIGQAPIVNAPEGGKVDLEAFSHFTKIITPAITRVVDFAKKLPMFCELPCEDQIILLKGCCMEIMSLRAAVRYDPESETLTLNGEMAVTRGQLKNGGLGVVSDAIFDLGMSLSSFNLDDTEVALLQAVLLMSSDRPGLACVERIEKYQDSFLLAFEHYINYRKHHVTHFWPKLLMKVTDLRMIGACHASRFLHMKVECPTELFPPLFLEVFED
# UniProt P19793, residues 126-462: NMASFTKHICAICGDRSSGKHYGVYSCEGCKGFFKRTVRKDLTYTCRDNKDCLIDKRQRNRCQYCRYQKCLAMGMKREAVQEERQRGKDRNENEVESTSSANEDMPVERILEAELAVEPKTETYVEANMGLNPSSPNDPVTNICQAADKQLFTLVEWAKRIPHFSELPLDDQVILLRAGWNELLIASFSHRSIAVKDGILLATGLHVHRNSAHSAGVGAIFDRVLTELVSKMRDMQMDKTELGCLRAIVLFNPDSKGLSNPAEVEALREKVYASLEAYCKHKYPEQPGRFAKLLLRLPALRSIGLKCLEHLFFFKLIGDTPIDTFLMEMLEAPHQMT
# No constants are given. Whether binding was seen depends on the method and setting. Some entries that bind do so weakly or less than the wild type.
# Biological target: human TRβ1ΔAB (TR DBD-LBD), thyroid hormone receptor β1 residues 102-461 (human) (UniProt P10828)
# Assay: SEC; TR+T3 and RXR mixed at equimolar quantities, complex purified on Superdex75 10/30; eluted protein checked by non-denaturing gel electrophoresis; both purified
substance,measurement,value
"RXRα1ΔAB (DBD-LBD), retinoid X receptor α residues 126-462 (from UniProt P19793 126-462) (domain or fragment)",binding,binds
